Common to all, as to test: log2 fold change, soluble protein after heating vs DMSO (PISA); higher = thermal stabilisation; K562 lysate, 10 uM; active = over 0.2 and 3.5 SD of the protein, either way, in both replicates (recomputed)
Compound in one assay: O=C(CCCCCCC(=O)Nc1ccccc1)NO [vorinostat]
Summed up:
(§1)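 Values give the log-two fold change in thermal stability against solvent controls, from duplicates. Crude K562 extract at 1 mg/mL protein, made by dounce homogenisation in PBS pH 7.4 with 1 mM MgCl2, was treated with 10 μM compound for 30 min. After 3 min heating across 48°C-58°C, aliquots were pooled, adjusted to 0.5% NP-40 at 4°C and centrifuged at 21,000xg for 90 min. The supernatant was measured by TMTpro 16plex LC-MS/MS with channel sums equalised.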

Sequences of proteins named here, by UniProt entry; tags and fusion partners are left off. A change or cut given only in a name is not applied to a line headed by its entry.
UniProt Q86UT6, whole entry, looked up: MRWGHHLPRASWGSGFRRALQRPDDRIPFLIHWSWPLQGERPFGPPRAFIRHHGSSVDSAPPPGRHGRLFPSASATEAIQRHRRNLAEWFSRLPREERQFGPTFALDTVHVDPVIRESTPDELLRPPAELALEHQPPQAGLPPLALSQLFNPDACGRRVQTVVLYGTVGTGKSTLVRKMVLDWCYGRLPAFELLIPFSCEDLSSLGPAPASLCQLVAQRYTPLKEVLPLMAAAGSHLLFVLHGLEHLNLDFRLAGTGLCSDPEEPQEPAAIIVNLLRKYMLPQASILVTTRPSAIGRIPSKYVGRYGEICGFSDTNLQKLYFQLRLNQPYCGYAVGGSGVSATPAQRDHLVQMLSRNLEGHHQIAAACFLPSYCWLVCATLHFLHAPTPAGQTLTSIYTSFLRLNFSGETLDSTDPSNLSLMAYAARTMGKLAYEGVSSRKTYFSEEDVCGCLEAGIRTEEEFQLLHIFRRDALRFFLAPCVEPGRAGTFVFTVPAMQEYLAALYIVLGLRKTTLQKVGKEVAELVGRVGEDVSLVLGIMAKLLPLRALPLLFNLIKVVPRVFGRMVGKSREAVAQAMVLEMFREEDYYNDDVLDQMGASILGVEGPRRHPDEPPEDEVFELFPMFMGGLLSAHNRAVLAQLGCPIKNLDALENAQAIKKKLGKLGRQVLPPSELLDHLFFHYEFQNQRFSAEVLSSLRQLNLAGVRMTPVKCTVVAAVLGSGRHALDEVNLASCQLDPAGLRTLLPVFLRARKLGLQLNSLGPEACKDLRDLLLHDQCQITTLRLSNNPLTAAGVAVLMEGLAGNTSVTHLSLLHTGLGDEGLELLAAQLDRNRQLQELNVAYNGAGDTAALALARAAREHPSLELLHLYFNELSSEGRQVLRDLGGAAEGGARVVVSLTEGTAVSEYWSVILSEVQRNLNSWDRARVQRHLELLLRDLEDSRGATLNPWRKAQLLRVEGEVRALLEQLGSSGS
UniProt Q9C000: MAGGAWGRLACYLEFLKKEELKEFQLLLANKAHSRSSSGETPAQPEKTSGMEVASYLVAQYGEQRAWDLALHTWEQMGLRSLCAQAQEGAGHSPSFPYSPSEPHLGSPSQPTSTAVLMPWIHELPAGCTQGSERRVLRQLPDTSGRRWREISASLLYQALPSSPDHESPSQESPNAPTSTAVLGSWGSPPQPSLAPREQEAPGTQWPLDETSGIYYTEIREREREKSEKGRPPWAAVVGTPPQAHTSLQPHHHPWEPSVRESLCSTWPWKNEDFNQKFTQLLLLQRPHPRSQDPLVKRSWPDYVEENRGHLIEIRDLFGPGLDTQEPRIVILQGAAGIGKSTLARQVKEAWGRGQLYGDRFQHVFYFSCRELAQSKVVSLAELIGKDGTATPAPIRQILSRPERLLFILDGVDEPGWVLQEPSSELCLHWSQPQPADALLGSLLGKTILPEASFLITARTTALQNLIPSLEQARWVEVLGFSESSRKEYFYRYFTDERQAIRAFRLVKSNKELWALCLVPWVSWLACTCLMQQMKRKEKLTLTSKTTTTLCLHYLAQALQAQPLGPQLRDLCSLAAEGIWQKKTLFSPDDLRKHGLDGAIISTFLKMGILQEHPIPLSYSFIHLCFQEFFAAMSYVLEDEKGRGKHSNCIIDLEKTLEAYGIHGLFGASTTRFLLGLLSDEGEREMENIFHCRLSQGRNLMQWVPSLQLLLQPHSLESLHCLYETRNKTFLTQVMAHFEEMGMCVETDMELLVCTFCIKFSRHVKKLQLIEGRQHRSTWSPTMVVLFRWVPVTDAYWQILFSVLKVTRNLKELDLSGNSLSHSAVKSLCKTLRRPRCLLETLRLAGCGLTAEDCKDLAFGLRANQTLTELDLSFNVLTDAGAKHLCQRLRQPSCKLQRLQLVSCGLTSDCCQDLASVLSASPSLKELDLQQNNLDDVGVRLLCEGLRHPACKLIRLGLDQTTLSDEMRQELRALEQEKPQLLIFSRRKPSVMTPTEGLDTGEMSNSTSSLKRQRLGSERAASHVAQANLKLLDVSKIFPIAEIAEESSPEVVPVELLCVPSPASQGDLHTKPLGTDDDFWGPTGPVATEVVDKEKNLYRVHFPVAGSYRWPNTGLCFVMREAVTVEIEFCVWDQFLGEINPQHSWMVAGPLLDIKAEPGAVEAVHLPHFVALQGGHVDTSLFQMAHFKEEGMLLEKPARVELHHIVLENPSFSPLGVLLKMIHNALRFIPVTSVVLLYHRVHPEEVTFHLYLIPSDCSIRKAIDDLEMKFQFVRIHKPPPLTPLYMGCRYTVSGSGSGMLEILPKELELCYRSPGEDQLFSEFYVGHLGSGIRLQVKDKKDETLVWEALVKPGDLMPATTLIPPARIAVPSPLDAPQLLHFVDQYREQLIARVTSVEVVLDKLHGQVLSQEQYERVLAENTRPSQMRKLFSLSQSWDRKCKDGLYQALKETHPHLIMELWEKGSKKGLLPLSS
UniProt Q16649: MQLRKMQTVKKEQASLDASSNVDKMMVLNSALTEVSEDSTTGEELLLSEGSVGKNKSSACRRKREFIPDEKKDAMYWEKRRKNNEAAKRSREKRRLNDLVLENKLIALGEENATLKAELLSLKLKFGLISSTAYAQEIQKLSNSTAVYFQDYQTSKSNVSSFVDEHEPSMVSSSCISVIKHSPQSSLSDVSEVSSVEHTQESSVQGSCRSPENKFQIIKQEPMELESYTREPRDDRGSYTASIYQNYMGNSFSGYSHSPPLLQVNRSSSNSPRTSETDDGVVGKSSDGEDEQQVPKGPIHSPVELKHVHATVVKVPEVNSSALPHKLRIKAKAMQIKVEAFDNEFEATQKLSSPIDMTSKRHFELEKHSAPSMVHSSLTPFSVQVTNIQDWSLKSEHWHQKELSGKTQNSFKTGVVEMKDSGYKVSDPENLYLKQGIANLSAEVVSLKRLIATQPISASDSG
UniProt Q86Y39, whole entry, looked up: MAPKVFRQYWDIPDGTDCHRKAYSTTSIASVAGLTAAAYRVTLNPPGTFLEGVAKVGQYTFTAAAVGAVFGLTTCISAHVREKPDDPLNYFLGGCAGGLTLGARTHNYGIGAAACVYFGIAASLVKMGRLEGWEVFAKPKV
UniProt Q969S2: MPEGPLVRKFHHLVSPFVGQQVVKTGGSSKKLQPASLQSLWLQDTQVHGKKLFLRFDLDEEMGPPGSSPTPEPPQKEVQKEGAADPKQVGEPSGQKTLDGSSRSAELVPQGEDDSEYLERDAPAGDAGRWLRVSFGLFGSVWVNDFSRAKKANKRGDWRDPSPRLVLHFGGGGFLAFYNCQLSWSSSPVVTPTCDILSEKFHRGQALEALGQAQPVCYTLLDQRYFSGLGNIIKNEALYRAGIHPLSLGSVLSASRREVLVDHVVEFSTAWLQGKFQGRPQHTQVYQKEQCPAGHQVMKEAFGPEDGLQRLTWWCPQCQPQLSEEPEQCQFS
UniProt O43677, whole entry, looked up: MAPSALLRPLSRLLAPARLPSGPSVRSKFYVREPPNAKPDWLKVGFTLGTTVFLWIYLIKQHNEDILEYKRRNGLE
UniProt Q7L592: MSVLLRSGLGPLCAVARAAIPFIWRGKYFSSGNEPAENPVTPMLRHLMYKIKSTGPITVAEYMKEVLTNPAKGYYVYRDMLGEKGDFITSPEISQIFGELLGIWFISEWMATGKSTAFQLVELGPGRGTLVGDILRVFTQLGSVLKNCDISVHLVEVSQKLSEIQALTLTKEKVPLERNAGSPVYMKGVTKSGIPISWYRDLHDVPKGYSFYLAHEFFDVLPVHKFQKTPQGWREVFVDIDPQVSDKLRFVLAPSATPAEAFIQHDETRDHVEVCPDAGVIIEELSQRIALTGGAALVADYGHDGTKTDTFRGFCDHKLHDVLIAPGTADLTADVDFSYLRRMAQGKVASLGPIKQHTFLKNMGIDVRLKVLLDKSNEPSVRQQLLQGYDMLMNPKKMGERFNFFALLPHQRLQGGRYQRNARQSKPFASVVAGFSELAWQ
UniProt O75323: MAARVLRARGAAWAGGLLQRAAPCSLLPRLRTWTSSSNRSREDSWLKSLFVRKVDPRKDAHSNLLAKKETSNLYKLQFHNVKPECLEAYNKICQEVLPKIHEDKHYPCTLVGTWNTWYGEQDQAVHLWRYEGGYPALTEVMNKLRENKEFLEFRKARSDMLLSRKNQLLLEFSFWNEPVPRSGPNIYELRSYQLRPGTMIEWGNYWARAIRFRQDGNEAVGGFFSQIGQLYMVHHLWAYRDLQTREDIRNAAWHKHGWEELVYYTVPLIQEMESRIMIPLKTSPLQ
UniProt O94916: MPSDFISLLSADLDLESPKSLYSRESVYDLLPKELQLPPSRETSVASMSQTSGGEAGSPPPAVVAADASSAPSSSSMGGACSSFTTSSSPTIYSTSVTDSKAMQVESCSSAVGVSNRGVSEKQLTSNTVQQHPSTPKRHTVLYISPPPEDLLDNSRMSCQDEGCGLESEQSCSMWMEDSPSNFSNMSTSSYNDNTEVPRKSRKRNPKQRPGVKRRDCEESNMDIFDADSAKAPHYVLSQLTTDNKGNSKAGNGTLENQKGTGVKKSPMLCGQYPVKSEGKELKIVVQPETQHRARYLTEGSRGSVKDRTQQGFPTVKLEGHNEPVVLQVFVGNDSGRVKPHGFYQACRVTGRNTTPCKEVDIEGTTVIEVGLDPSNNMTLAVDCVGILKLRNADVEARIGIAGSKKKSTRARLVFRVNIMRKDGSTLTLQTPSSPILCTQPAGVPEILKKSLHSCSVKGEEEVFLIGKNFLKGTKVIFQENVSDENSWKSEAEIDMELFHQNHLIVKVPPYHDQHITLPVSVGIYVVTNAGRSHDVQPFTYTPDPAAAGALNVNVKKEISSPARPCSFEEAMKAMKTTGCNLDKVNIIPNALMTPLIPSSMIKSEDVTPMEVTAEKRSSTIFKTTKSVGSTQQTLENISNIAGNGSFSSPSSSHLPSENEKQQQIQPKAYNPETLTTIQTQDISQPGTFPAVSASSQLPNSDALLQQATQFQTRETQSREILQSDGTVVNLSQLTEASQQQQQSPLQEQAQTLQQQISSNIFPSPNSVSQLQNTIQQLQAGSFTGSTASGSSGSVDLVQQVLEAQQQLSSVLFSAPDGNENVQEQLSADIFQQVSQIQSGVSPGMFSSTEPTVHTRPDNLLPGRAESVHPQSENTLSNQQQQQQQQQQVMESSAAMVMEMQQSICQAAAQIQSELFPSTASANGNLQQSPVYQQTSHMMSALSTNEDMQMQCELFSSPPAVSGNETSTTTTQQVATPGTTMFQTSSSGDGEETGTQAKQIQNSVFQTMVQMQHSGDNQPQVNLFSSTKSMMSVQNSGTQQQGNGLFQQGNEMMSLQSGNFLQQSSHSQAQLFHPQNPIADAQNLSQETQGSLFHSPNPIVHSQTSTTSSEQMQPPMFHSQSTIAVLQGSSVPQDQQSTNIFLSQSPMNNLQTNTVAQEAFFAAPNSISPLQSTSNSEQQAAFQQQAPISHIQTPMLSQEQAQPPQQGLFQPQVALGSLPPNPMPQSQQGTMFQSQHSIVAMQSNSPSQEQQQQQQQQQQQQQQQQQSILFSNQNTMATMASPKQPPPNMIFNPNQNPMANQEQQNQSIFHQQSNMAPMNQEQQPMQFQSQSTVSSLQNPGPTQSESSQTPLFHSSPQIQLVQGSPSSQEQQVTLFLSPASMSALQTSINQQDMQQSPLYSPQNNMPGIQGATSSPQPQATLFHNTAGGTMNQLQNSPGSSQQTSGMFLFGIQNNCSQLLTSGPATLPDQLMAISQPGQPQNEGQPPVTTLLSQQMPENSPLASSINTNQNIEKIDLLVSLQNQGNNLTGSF
UniProt O00483, whole entry, looked up: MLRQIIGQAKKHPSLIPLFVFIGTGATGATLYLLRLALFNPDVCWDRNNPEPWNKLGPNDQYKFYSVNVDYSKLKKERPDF
UniProt Q9NV92: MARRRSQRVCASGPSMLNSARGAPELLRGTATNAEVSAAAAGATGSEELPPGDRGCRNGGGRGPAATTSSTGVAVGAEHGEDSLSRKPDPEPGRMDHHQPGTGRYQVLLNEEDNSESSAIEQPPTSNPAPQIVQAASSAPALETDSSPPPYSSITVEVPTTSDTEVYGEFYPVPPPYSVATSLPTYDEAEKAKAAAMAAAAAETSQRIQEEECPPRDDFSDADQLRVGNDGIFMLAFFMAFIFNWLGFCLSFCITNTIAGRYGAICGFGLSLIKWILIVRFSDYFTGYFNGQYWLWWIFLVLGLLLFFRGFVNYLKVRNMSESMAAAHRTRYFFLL
UniProt Q15843, whole entry, looked up: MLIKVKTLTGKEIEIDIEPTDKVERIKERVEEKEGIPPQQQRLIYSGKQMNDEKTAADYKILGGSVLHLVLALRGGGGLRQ
UniProt Q5JS37: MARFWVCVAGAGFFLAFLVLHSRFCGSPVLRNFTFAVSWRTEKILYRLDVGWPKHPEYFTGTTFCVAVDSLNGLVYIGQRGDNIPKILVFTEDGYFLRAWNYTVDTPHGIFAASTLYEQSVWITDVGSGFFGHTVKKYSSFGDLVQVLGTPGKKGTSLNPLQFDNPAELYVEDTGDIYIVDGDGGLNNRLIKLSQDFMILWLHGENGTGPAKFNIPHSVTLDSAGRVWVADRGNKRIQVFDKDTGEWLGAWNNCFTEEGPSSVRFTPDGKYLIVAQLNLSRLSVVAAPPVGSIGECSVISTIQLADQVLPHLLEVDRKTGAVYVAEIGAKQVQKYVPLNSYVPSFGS

Compound in a further assay: O=C(O)c1ccc2c(c1)nc(Nc1cccc(Cl)c1)c1ccncc12 [silmitasertib]
Summed up: as §1

Compound in assay [1]: NCC(=O)Nc1ccc(-n2nc(C(F)(F)F)cc2-c2ccc3c(ccc4ccccc43)c2)cc1
The gist of the method:
as §1

Compound in assay [2]: O=C1NC(=O)C(c2cnc3ccccn23)=C1c1cn2c3c(cc(F)cc13)CN(C(=O)N1CCCCC1)CC2
The gist of the method:
as §1

Compound in a further assay: c1cn2cc(-c3ccc4cn[nH]c4c3)nc(Nc3ccc(N4CCOCC4)cc3)c2n1 [entospletinib]
Summed up:
as §1

Some of the results follow.

Take NKAPD1 isoform 2 (UniProt Q6ZUT1): the log2 fold change with vorinostat was inactive: 0.079; in the assay with silmitasertib it was inactive: 0.034.

As to NIBAN2 (UniProt Q96TA1), the log2 fold change was inactive: 0.005 in assay [1]; inactive: -0.087 with vorinostat; inactive: 0.027 with silmitasertib; inactive: -0.009 in assay [2]; inactive: -0.003 with entospletinib.

As for NEK5 (UniProt Q6P3R8), the results for the log2 fold change (in assay [1]; in the assay with entospletinib) were inactive: 0.038 and inactive: 0, respectively.

Consider NLN (UniProt Q9BYT8), for which the log2 fold change was inactive: 0.042 in assay [1]; inactive: 0.146 with vorinostat; inactive: -0.01 in the assay with silmitasertib; inactive: -0.008 in assay [2]; inactive: -0.006 in the assay with entospletinib.

On to NDST2 (UniProt P52849), for which the log2 fold change in assay [1] was inactive: 0.056; with vorinostat, inactive: 0.131; with silmitasertib, inactive: 0.097; in assay [2], inactive: -0.056; in the assay with entospletinib it was inactive: 0.13.

For the target NLRX1 (UniProt Q86UT6), the log2 fold change in assay [1] was inactive: -0.325; with vorinostat it was inactive: 0.226; with silmitasertib, inactive: -0.231; with entospletinib, inactive: 0.089.

Regarding NFATC1 (UniProt O95644), the log2 fold change in assay [1] is inactive: 0.014; in the assay with vorinostat, active: -0.364; with silmitasertib it was inactive: 0.07; in assay [2], inactive: 0.033; with entospletinib, inactive: -0.047.

With NLRP1 (UniProt Q9C000), the log2 fold change with vorinostat was inactive: 0.241; with silmitasertib, inactive: -1.56; in assay [2] it was inactive: 0.787; with entospletinib, inactive: 0.438.

Turning to NFIL3 (UniProt Q16649), in the assay with entospletinib, the log2 fold change was inactive: 0.122.

NLRC3 isoform 2 (UniProt Q7RTR2): the log2 fold change is inactive: 0.054 in assay [1]; inactive: 0.049 with vorinostat; inactive: -0.026 with silmitasertib; inactive: 0.031 in assay [2]; inactive: -0.006 with entospletinib.

Turning to NEMP1 (UniProt O14524), the log2 fold change in assay [2] is inactive: -0.077.

Take NEPRO (UniProt Q6NW34): the log2 fold change with vorinostat was inactive: 0.012; with silmitasertib it was inactive: 0.03; in assay [2] it was inactive: -0.061; in the assay with entospletinib, inactive: -0.031.

Take NFATC3 (UniProt Q12968): the log2 fold change was inactive: 0.031 in assay [1]; inactive: -0.146 with vorinostat; inactive: -0.033 with silmitasertib; inactive: -0.006 in assay [2]; inactive: 0.032 with entospletinib.

Consider NDUFA11 (UniProt Q86Y39), for which the log2 fold change in assay [1] was inactive: -0.036; with vorinostat, inactive: 0.109; with silmitasertib it was inactive: -0.021; in assay [2] it was inactive: -0.019; with entospletinib, inactive: 0.021.

Regarding NFATC2IP (UniProt Q8NCF5), the log2 fold change in assay [1] was inactive: 0.041; with vorinostat, inactive: -0.069; with silmitasertib, inactive: -0.039; in assay [2] it was inactive: -0.07; with entospletinib, inactive: 0.041.

On to NEIL2 (UniProt Q969S2), for which the log2 fold change was inactive: 0.055 with vorinostat and inactive: 0.073 with silmitasertib.

Consider NDUFC1 (UniProt O43677), for which the results for the log2 fold change with vorinostat, with silmitasertib and with entospletinib were inactive: 0.095, inactive: 0.101 and inactive: -0.055, respectively.

As to NDUFAF7 (UniProt Q7L592), the log2 fold change in assay [1] was inactive: -0.008; in the assay with vorinostat, inactive: -0.061; with silmitasertib, inactive: -0.024; in assay [2] it was inactive: 0.025; with entospletinib, inactive: -0.011.

Consider NFIX (UniProt Q14938), for which the log2 fold change with entospletinib was inactive: -0.037.

Consider NIPSNAP2 (UniProt O75323), for which the log2 fold change in assay [1] is inactive: 0.01; with vorinostat, inactive: 0.004; in the assay with silmitasertib, inactive: -0.074; in assay [2], inactive: 0.009; with entospletinib, inactive: 0.099.

Turning to NFAT5 isoform 4 (UniProt O94916), the log2 fold change in assay [2] is inactive: -0.062.

NEXN (UniProt Q0ZGT2): the log2 fold change in assay [1] was inactive: 0.144; with vorinostat it was inactive: -0.335; in the assay with silmitasertib, inactive: -0.038; with entospletinib, inactive: 0.042.

As for NDUFA4 (UniProt O00483), the log2 fold change in assay [1] was inactive: -0.041; with vorinostat it was inactive: -0.017; with silmitasertib, inactive: -0.004; in assay [2] it was inactive: 0.01; with entospletinib it was inactive: -0.029.

In the case of NKIRAS1 (UniProt Q9NYS0), the log2 fold change in assay [1] is inactive: 0.091; in the assay with vorinostat it was inactive: -0.126; with silmitasertib, inactive: -0.057; with entospletinib, inactive: -0.05.

On to NIN isoform 7 (UniProt Q8N4C6), for which the log2 fold change is inactive: 0.089 in the assay with vorinostat, inactive: 0.07 with silmitasertib and inactive: -0.014 in assay [2].

Turning to NDFIP2 (UniProt Q9NV92), the log2 fold change in assay [2] was inactive: 0.127.

Take NEDD8 (UniProt Q15843): the log2 fold change in assay [1] was inactive: -0.033; in the assay with vorinostat, inactive: 0.195; with silmitasertib, inactive: -0.12; in assay [2] it was inactive: 0.038; with entospletinib, inactive: -0.082.

For NFATC4 isoform 2 (UniProt Q14934), the figures for the log2 fold change (in assay [1]; in assay [2]; with entospletinib) were inactive: 0.207, inactive: 0.076 and inactive: 0.019, respectively.

On to NECAP1 (UniProt Q8NC96), for which the log2 fold change in assay [1] is inactive: -0.028; with vorinostat, inactive: -0.025; with silmitasertib, inactive: 0.006; in assay [2], inactive: 0.045; with entospletinib, inactive: 0.002.

Take NHLRC3 (UniProt Q5JS37): the log2 fold change is inactive: -0.085 in assay [1]; inactive: -0.015 with vorinostat; inactive: 0.001 in the assay with silmitasertib; inactive: -0.008 in assay [2]; inactive: 0.024 with entospletinib.

The values are drawn from the supplement of paper PMC10849652.
